Data reported in patent publication US20250271426A1, “REDUCTION OF BITTER TASTE OF ACTIVE PHARMACEUTICAL INGREDIENTS AND RELATED ASSAYS AND SCREENING METHODS” (Firmenich Incorporated, priority 2022, published 2025).
At least one structure is not confirmed: it was looked up by name or label, or the drawing left a doubt. Some entries repeat one wording, which the source may state once for all of them.

Legend:
Assay in all cases: FLIPR calcium assay, cells with promiscuous G protein transfected with bitter receptor cDNA
Type in all cases: cell-based
Settings in all cases: responsive if cellular response of >10% over baseline, Fluo4-AM
[1] = target: T1, T2R receptor SEQ ID NO: 3 (S3) (Homo sapiens, UniProt Q9NYW0, T156M)
T1 construct: expressed in transfected cells; host or cells: cells expressing a promiscuous G protein (e.g., G16g44)
T1 sequence (Q9NYW0 1-307 T156M): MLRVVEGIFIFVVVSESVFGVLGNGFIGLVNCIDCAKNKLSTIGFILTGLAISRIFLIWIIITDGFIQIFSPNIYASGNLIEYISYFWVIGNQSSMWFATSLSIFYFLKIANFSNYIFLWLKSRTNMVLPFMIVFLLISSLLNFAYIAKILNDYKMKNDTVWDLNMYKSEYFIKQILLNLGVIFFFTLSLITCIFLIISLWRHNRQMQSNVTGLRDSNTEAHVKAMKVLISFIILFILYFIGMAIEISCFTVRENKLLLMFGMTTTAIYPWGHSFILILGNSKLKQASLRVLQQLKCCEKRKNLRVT
Protocol: (§1) Cells expressing a promiscuous G protein (e.g., G16g44) were transfected with vectors encoding 22 functional bitter receptor cDNAs, with one receptor per transfection. The cells were transfected directly in 384-well format high-density plates and incubated for 28 hours. Later, cells were loaded with the Ca-specific dye Fluo4-AM. After an incubation of 60 minutes, excess dye is washed off, and cells are stimulated with respective bitter agonists while simultaneously recording changes in intracellular fluorescence using a FLIPR instrument.
(§2) The above protocol was carried out using 94 different active pharmaceutical ingredients (APIs) that span a wide range of different APIs having a diversity of chemical structures. A particular T2R receptor was identified as being responsive to a particular API if it triggered a cellular response of >10% over baseline.

[2] = target: T2, T2R receptor SEQ ID NO: 5 (S5) (Homo sapiens, UniProt P59534)
T2 construct: expressed in transfected cells; host or cells: cells expressing a promiscuous G protein (e.g., G16g44)
T2 sequence (P59534 18-338): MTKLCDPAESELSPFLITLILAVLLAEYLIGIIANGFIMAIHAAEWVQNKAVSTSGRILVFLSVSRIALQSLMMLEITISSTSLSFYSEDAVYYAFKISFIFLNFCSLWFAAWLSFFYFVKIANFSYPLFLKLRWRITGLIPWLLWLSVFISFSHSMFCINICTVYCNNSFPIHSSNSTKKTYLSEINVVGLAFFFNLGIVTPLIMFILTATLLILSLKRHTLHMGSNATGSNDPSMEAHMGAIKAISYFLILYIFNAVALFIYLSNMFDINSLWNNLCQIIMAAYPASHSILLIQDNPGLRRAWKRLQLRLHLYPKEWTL
Protocol: as §1, §2

[3] = target: T3, T2R receptor SEQ ID NO: 4 (S4) (Homo sapiens, UniProt Q9NYV8)
T3 construct: expressed in transfected cells; host or cells: cells expressing a promiscuous G protein (e.g., G16g44)
T3 sequence (Q9NYV8 1-317): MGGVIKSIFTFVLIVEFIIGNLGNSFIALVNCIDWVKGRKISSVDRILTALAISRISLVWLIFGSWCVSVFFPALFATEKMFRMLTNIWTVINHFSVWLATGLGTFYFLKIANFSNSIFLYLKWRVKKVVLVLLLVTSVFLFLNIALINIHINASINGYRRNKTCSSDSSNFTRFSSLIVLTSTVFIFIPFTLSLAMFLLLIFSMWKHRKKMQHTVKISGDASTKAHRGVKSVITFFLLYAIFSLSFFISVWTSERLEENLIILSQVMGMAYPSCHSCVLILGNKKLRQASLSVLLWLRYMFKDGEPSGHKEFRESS
Protocol: as §1, §2

[4] = target: T4, T2R receptor SEQ ID NO: 6 (S6) (Homo sapiens, UniProt P59540)
T4 construct: expressed in transfected cells; host or cells: cells expressing a promiscuous G protein (e.g., G16g44)
T4 sequence (P59540 1-309): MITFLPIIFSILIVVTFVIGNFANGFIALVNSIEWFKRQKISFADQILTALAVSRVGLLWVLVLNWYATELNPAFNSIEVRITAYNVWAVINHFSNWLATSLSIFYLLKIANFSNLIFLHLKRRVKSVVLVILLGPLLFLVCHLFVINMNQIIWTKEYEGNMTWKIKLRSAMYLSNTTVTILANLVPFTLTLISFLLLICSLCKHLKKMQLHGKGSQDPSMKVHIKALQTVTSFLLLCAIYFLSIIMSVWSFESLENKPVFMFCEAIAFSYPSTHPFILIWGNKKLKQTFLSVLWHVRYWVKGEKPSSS
Protocol: as §1, §2

[5] = target: T5, T2R receptor SEQ ID NO: 1 (S1) (Homo sapiens, UniProt Q9NYW7)
T5 construct: expressed in transfected cells; host or cells: cells expressing a promiscuous G protein (e.g., G16g44)
T5 sequence (Q9NYW7 1-299): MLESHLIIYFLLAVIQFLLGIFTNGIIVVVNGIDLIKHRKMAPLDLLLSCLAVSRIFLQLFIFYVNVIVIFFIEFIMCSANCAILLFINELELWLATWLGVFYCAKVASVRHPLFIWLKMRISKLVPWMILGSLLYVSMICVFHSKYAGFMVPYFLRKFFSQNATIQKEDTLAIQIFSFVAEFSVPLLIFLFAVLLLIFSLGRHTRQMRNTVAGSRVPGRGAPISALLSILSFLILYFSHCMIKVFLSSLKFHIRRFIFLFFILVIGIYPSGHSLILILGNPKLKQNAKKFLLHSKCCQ
Protocol: as §1, §2

[6] = target: T6, T2R receptor SEQ ID NO: 2 (S2) (Homo sapiens, UniProt Q9NYW2)
T6 construct: expressed in transfected cells; host or cells: cells expressing a promiscuous G protein (e.g., G16g44)
T6 sequence (Q9NYW2 1-309): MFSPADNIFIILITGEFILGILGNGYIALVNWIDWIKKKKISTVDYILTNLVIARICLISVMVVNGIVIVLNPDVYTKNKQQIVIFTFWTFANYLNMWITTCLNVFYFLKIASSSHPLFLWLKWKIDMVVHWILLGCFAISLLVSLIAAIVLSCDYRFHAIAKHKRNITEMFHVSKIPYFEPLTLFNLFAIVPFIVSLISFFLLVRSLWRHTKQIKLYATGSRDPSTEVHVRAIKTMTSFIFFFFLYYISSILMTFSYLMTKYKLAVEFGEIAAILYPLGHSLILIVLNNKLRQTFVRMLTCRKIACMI
Protocol: as §1, §2

SMILES	S3 positive response of T2R receptor to API [1]	S5 positive response of T2R receptor to API [2]	S4 positive response of T2R receptor to API [3]	S6 positive response of T2R receptor to API [4]	S1 positive response of T2R receptor to API [5]	S2 positive response of T2R receptor to API [6]
CN(C)CCCC1(c2ccc(F)cc2)OCc2cc(C#N)ccc21 (stereo not drawn) [Citalopram]	+ (a “+” to indicate whether a particular T2R receptor showed a positive response to a particular API)	+ (a “+” to indicate whether a particular T2R receptor showed a positive response to a particular API)	+ (a “+” to indicate whether a particular T2R receptor showed a positive response to a particular API)	+ (a “+” to indicate whether a particular T2R receptor showed a positive response to a particular API)		
C[C@@H]1C[C@H]2[C@@H]3CCC4=CC(=O)C=C[C@]4(C)[C@@]3(F)[C@@H](O)C[C@]2(C)[C@@]1(O)C(=O)CO [Dexamethasone]	+ (a “+” to indicate whether a particular T2R receptor showed a positive response to a particular API)		+ (a “+” to indicate whether a particular T2R receptor showed a positive response to a particular API)	+ (a “+” to indicate whether a particular T2R receptor showed a positive response to a particular API)	+ (a “+” to indicate whether a particular T2R receptor showed a positive response to a particular API)	+ (a “+” to indicate whether a particular T2R receptor showed a positive response to a particular API)
C[C@H]1C[C@@H]2[C@H]([C@@H](O)C[C@@]3(C)[C@H]2CC[C@]3(O)C(=O)CO)[C@@]2(C)C=CC(=O)C=C12 [Methylprednisolone]	+ (a “+” to indicate whether a particular T2R receptor showed a positive response to a particular API)		+ (a “+” to indicate whether a particular T2R receptor showed a positive response to a particular API)	+ (a “+” to indicate whether a particular T2R receptor showed a positive response to a particular API)	+ (a “+” to indicate whether a particular T2R receptor showed a positive response to a particular API)	+ (a “+” to indicate whether a particular T2R receptor showed a positive response to a particular API)
CC1COc2c(N3CCN(C)CC3)c(F)cc3c(=O)c(C(=O)O)cn1c23 (stereo not drawn) [Ofloxacin]				+ (a “+” to indicate whether a particular T2R receptor showed a positive response to a particular API)		+ (a “+” to indicate whether a particular T2R receptor showed a positive response to a particular API)
COc1ccc2[nH]c([S+]([O-])Cc3ncc(C)c(OC)c3C)nc2c1 (stereo not drawn) [Omeprazole]	+ (a “+” to indicate whether a particular T2R receptor showed a positive response to a particular API)		+ (a “+” to indicate whether a particular T2R receptor showed a positive response to a particular API)	+ (a “+” to indicate whether a particular T2R receptor showed a positive response to a particular API)		
COc1ccnc(C[S+]([O-])c2nc3ccc(OC(F)F)cc3[nH]2)c1OC (stereo not drawn) [Pantoprazole]			+ (a “+” to indicate whether a particular T2R receptor showed a positive response to a particular API)			
CNC(=C[N+](=O)[O-])NCCSCc1ccc(CN(C)C)o1 [Ranitidine]	+ (a “+” to indicate whether a particular T2R receptor showed a positive response to a particular API)	+ (a “+” to indicate whether a particular T2R receptor showed a positive response to a particular API)		+ (a “+” to indicate whether a particular T2R receptor showed a positive response to a particular API)		+ (a “+” to indicate whether a particular T2R receptor showed a positive response to a particular API)
